Test results: the supplement of paper PMC10849652
This is one part of the list.

By UniProt entry, the sequences of proteins in these tests, tags left out. Where a name states a change or a piece, a line headed by the entry shows the natural chain unless it says otherwise.
UniProt Q15506: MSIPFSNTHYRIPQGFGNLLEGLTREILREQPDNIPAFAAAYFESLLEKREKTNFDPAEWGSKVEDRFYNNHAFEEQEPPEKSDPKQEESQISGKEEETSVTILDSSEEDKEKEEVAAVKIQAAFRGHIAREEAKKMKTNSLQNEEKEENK
UniProt P62308, whole entry, looked up: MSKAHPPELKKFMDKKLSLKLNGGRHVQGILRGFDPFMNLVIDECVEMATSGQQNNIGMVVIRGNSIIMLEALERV
UniProt Q99523, whole entry, looked up: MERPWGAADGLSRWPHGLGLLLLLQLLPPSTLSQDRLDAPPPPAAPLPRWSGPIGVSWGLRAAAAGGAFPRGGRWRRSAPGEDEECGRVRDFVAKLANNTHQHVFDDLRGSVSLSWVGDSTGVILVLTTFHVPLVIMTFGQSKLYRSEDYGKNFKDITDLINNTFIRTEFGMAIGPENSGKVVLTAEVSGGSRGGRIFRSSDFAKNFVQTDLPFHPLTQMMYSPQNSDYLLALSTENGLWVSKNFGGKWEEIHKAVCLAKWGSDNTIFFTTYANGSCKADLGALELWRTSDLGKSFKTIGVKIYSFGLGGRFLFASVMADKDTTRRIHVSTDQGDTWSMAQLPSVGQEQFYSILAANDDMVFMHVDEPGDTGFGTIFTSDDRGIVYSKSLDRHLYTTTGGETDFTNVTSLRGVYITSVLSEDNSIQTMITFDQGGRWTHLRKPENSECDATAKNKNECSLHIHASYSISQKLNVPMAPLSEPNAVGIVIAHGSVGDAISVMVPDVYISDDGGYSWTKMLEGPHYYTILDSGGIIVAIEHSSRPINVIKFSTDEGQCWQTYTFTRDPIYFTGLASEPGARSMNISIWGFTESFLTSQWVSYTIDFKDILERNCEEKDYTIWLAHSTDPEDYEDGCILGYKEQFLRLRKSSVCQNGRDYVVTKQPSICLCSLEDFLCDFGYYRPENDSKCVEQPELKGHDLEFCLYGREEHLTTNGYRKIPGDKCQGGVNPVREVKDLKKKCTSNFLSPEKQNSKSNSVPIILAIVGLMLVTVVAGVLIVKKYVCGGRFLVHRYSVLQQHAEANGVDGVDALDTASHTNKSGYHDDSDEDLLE
UniProt P35716: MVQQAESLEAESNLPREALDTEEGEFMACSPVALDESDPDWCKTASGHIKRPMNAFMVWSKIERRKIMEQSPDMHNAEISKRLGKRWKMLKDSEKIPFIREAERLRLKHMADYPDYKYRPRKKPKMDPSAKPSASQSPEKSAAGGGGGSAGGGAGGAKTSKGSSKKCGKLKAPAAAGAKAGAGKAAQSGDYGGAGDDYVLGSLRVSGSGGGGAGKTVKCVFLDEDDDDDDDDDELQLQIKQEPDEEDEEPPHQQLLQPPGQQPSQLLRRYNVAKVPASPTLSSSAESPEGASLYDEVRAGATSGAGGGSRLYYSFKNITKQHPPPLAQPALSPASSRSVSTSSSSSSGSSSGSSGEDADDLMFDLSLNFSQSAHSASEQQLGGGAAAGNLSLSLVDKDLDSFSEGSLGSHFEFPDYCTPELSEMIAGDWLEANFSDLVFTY
UniProt Q96RF0: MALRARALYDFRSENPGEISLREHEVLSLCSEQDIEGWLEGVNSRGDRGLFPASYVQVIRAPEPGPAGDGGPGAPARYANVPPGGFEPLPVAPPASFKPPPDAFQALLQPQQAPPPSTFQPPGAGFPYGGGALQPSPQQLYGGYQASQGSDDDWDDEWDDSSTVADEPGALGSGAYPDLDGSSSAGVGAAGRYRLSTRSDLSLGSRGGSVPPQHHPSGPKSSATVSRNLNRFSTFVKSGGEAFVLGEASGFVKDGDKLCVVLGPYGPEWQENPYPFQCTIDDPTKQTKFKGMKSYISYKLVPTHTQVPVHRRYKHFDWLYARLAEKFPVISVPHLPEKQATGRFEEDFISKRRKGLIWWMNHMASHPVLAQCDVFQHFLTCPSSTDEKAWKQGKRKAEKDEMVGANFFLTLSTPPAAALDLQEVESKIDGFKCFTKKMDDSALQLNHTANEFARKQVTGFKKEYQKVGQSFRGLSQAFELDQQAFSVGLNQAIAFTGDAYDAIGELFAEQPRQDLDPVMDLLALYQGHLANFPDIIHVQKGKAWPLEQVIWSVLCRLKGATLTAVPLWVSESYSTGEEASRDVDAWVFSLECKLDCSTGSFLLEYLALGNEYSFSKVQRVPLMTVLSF
UniProt Q07617: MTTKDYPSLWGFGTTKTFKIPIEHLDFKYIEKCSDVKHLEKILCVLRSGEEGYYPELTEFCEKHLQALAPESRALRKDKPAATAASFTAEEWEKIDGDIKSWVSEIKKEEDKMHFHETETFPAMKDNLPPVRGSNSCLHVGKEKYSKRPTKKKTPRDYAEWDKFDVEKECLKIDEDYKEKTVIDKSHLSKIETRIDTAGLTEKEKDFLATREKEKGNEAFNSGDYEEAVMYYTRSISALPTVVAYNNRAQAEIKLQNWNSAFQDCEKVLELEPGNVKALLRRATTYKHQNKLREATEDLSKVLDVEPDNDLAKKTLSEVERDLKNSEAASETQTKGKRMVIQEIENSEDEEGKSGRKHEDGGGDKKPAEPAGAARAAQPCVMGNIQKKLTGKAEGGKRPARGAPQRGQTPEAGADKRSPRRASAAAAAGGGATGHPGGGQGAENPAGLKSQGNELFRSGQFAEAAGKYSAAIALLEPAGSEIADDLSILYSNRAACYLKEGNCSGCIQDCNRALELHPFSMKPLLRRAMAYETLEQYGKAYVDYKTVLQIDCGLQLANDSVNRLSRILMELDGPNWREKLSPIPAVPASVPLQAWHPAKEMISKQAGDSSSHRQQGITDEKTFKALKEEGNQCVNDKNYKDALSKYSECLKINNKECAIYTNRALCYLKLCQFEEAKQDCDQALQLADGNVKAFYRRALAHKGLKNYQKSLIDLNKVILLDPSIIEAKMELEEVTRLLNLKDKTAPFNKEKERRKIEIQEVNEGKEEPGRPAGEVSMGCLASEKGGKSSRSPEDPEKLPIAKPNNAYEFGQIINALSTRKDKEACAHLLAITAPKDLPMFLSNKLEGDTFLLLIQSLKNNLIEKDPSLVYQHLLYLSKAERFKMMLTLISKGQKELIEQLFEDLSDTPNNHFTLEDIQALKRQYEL
UniProt O60749: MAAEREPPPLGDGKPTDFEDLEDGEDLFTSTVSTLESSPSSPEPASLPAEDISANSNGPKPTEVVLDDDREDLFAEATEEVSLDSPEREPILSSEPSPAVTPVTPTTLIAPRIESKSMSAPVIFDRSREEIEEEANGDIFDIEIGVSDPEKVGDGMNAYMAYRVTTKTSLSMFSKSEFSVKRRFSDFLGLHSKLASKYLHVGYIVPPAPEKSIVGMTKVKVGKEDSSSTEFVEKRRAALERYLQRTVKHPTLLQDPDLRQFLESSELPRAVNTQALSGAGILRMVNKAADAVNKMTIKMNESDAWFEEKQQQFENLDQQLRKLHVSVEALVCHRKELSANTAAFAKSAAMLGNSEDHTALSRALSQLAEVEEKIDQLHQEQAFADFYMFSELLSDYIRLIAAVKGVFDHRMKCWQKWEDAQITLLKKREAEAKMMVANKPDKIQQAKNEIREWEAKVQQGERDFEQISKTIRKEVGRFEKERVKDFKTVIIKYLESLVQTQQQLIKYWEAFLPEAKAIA
UniProt O94964: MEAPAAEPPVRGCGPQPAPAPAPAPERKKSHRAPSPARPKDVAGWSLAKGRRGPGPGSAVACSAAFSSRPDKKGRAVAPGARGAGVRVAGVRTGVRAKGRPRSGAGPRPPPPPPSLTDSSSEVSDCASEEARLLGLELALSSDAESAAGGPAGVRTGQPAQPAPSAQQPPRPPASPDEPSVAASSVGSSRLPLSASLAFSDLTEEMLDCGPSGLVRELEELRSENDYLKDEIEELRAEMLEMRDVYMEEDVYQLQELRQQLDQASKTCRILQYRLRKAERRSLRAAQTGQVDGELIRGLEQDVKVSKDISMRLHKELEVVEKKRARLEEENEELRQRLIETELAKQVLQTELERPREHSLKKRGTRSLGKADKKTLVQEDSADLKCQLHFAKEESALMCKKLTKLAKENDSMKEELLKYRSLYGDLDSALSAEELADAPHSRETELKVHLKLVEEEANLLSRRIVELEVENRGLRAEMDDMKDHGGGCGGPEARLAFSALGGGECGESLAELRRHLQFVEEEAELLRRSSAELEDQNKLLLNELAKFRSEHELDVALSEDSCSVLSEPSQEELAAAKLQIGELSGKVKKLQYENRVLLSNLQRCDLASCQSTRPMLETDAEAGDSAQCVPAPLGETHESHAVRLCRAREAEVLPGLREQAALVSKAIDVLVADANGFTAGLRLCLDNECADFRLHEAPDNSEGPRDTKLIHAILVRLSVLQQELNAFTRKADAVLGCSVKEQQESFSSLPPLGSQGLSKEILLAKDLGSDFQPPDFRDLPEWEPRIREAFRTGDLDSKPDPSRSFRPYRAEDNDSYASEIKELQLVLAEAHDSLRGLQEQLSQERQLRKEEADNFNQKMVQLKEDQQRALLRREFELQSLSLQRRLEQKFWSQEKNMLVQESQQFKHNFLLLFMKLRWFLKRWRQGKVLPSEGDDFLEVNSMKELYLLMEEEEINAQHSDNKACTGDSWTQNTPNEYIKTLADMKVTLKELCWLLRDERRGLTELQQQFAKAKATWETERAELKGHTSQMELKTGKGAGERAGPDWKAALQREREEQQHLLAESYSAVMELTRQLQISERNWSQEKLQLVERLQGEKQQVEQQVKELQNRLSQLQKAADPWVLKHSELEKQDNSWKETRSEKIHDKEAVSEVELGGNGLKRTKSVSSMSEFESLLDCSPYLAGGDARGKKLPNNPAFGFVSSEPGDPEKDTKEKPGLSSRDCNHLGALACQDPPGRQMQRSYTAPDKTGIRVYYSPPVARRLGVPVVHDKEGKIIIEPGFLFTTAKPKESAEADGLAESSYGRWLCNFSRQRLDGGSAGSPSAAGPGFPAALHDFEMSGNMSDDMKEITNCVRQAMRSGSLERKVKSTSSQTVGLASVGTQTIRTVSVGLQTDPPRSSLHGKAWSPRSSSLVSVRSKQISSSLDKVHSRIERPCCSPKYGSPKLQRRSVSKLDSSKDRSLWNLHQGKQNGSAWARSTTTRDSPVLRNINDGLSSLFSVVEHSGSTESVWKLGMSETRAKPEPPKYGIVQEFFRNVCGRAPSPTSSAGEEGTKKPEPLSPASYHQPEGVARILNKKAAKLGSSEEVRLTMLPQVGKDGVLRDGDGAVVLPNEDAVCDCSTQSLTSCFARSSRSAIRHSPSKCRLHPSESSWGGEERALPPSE
UniProt Q7Z3B0: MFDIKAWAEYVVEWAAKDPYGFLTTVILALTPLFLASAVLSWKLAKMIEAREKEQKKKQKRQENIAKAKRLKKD
UniProt P35712: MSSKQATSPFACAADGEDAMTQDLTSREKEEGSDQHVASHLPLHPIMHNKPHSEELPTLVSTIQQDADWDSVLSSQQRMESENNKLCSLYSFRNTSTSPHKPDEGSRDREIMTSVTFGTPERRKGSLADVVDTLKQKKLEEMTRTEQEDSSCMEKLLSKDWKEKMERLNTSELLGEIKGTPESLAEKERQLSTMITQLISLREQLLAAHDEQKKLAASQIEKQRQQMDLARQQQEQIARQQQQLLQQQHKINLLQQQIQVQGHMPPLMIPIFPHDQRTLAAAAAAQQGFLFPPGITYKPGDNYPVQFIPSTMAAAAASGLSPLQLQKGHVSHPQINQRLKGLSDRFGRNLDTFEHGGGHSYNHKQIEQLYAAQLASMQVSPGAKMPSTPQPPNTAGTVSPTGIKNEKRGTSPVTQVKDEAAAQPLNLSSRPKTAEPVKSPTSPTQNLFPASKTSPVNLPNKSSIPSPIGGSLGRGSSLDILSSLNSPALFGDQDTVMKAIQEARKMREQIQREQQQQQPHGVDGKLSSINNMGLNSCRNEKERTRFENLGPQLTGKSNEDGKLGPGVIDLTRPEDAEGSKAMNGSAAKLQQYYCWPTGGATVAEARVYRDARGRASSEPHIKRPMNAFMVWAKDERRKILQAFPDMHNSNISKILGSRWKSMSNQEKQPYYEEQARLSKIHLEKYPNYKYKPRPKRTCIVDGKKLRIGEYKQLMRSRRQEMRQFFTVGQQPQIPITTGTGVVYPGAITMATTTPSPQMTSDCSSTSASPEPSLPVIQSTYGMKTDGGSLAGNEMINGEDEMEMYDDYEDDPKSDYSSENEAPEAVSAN
UniProt O95219: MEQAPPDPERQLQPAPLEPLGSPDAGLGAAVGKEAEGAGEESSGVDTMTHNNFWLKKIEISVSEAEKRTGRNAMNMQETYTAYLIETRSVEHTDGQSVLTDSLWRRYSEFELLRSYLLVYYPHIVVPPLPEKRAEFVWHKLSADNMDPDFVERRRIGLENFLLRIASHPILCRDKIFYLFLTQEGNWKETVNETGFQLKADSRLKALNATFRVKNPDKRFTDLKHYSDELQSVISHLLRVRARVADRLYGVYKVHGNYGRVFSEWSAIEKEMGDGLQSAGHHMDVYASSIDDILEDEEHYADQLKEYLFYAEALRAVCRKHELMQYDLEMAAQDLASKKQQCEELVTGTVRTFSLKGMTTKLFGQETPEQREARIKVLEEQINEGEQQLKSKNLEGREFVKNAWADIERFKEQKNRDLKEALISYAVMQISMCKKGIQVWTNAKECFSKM

Key:
Experiment in all cases: log2 fold change, soluble protein after heating vs DMSO (PISA); higher = thermal stabilisation; K562 lysate, 10 uM; active = over 0.2 and 3.5 SD of the protein, either way, in both replicates (recomputed)
[1] = compound: CCCS(=O)(=O)Nc1ccc(F)c(C(=O)c2c[nH]c3ncc(-c4ccc(Cl)cc4)cc23)c1F [vemurafenib]
Outline: (§1)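 Soluble protein was defined as the supernatant remaining after 21,000xg for 90 min, following pooling of heated aliquots and adjustment to 0.5% NP-40 at 4°C. Before that, crude K562 extract at 1 mg/mL protein in PBS pH 7.4 with 1 mM MgCl2 was treated with 10 μM compound for 30 min and heated for 3 min across 48°C-58°C. Quantification used TMTpro 16plex LC-MS/MS with channel sums equalised, and values are log-two fold changes in thermal stability relative to solvent controls from duplicates.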

[2] = compound: CCCS(=O)(=O)Nc1ccc(F)c(C(=O)c2c[nH]c3ncc(Cl)cc23)c1F
Outline: as §1

[3] = compound: CCN(CCCOc1ccc2c(Nc3cc(CC(=O)Nc4cccc(F)c4)[nH]n3)ncnc2c1)CCOP(=O)(O)O [barasertib]
Outline: as §1

[4] = compound: CC[C@@H]1C(=O)N(C)c2cnc(Nc3ccc(C(=O)NC4CCN(C)CC4)cc3OC)nc2N1C1CCCC1
Outline: as §1

[5] = compound: CC[C@@H]1C(=O)N(C)c2cnc(Nc3ccc(C(=O)N[C@H]4CC[C@H](N5CCN(CC6CC6)CC5)CC4)cc3OC)nc2N1C(C)C [volasertib]
Outline: as §1

[6] = compound: CCn1c(C(=O)N(C2CC2)C2CC2)cc2c3c(ncn3C)c(Nc3cc(C)n(C)n3)nc21
Outline: as §1

[7] = compound: CCn1cc(-c2ccnc3[nH]c(-c4cccc(CN(C)C)c4)cc23)c(-c2ccc(NC(=O)N(C)C)cc2)n1
Outline: as §1

[8] = compound: CN1CCC(CNc2ccc3ncc(-c4cccc(OC(F)(F)F)c4)n3n2)CC1
Outline: as §1

[9] = compound: CN1CCN(CCOc2cc(OC3CCOCC3)c3c(Nc4c(Cl)ccc5c4OCO5)ncnc3c2)CC1 [saracatinib]
Outline: as §1

[10] = compound: CN1CCN(c2nc(C3=C(c4c[nH]c5ccccc45)C(=O)NC3=O)c3ccccc3n2)CC1 [sotrastaurin]
Outline: as §1

Measured: log2 fold change

SMIM12 (UniProt Q96EX1)
active: [7] 0.355
inactive: [1] 0.023 | [2] 0.024 | [3] 0.106 | [4] 0.129 | [5] -0.004 | [6] 0.08 | [8] -0.269 | [9] 0.041 | [10] 0.025

SP100 isoform 4 (UniProt P23497)
inactive: [1] 0.015 | [2] -0.014 | [3] -0.044 | [4] 0.035 | [5] 0.004 | [6] 0.018 | [7] -0.001 | [8] -0.002 | [9] -0.011 | [10] 0.017

SOD1 (UniProt P00441)
inactive: [1] -0.011 | [2] -0.019 | [3] 0.047 | [4] 0.021 | [5] 0.096 | [6] -0.01 | [7] 0.09 | [8] 0.05 | [9] -0.055 | [10] 0.134

SNUPN (UniProt O95149)
inactive: [1] -0.008 | [2] 0.007 | [3] 0.06 | [4] -0.082 | [5] 0.04 | [6] 0.051 | [7] -0.024 | [8] -0.036 | [10] 0.028

SPA17 (UniProt Q15506)
active: [7] -0.639
inactive: [1] -0.013 | [2] -0.004 | [3] 0.021 | [4] 0.005 | [5] 0.09 | [6] 0.022 | [8] 0.245 | [9] 0.004 | [10] 0.021

SNX12 isoform 1 (UniProt Q9UMY4)
inactive: [1] 0.004 | [2] -0.003 | [3] 0.009 | [4] 0.016 | [5] 0.008 | [6] 0.007 | [7] 0.036 | [8] -0.014 | [9] -0.007 | [10] -0.009

SMARCAD1 isoform 2 (UniProt Q9H4L7)
inactive: [1] 0.014 | [2] 0.034 | [3] 0.021 | [4] -0.039 | [5] -0.048 | [6] 0.017 | [7] -0.005 | [8] -0.057 | [9] 0.008 | [10] 0.002

SNRPG (UniProt P62308)
inactive: [1] 0.036 | [2] 0.011 | [3] 0.032 | [4] 0.061 | [5] 0.037 | [6] -0.029 | [7] -0.203 | [8] 0.11 | [9] 0.023 | [10] 0.008

SNX27 (UniProt Q96L92)
inactive: [1] 0.016 | [2] 0.034 | [3] 0.045 | [4] -0.031 | [5] -0.026 | [6] 0.055 | [7] -0.052 | [8] -0.025 | [9] 0.04 | [10] 0.031

SORT1 (UniProt Q99523)
inactive: [1] 0.002 | [2] -0.001 | [3] 0.024 | [4] -0.018 | [5] 0.026 | [6] -0.025 | [7] -0.014 | [8] 0.025 | [9] 0.014 | [10] 0.028

SOD3 (UniProt P08294)
inactive: [1] 0.064 | [2] -0.062 | [3] -0.131 | [4] 0.055 | [5] -0.009 | [7] 0.071 | [8] 0.023

SOX11 (UniProt P35716)
inactive: [1] -0.101 | [2] -0.05 | [5] 0.145 | [10] 0.095

SP3 (UniProt Q02447)
inactive: [2] 0.012 | [3] 0.065 | [4] 0.054 | [5] 0.027 | [6] -0.009 | [7] 0.052 | [8] -0.068 | [9] 0.047 | [10] -0.136

SNX18 isoform 2 (UniProt Q96RF0)
inactive: [1] -0.125 | [2] 0.047 | [4] -0.105 | [5] -0.24 | [7] 0.044 | [8] -0.13 | [10] -0.2

SNRPN isoform 2 (UniProt P63162)
inactive: [1] 0.046 | [2] 0.161 | [4] 0.191 | [5] -0.162 | [7] 0.118 | [8] -0.067 | [10] 0.059

SP6 (UniProt Q3SY56)
inactive: [1] 0.075 | [2] 0.051 | [4] 0.031 | [5] 0.023 | [6] 0.015 | [7] 0.284 | [8] -0.001 | [9] 0.106 | [10] 0.016

SPAG1 (UniProt Q07617)
inactive: [1] 0.041 | [2] 0.028 | [3] 0.018 | [5] -0.137 | [6] 0.083 | [10] -0.02

SNX30 (UniProt Q5VWJ9)
inactive: [2] -0.091 | [3] 0.032 | [5] 0.122 | [6] -0.002 | [7] 0.074 | [8] 0.06 | [9] 0.004 | [10] 0.113

SNAPC5 (UniProt O75971)
inactive: [1] -0.063 | [7] -0.189 | [8] 0.155

SNX14 (UniProt Q9Y5W7)
inactive: [1] -0.053 | [2] -0.014 | [3] 0.263 | [4] 0.354 | [5] 0.041 | [6] -0.44 | [9] -0.022 | [10] -0.157

SNX2 isoform 2 (UniProt O60749)
inactive: [1] 0.275 | [2] 0.101 | [3] 0.021 | [4] 0.299 | [5] 0.048 | [6] -0.181 | [9] 0.009 | [10] -0.072

SOX7 isoform 2 (UniProt Q9BT81)
inactive: [1] -0.013 | [3] -0.04 | [6] 0.114 | [7] 0.238 | [8] -0.081

SNAPC4 (UniProt Q5SXM2)
inactive: [1] 0.086 | [3] 0.02 | [4] -0.043 | [7] 0.002 | [8] -0.082

SOGA1 isoform 2 (UniProt O94964)
inactive: [1] -0.022 | [3] 0.069 | [4] -0.123 | [6] -0.003 | [7] -0.025 | [8] -0.262 | [9] -0.002 | [10] -0.004

SMIM15 (UniProt Q7Z3B0)
inactive: [1] 0.201 | [2] 0.018 | [4] 0.097 | [5] 0.033 | [6] -0.076 | [7] 0.011 | [8] 0.025 | [9] 0.122 | [10] 0.013

SMPDL3B (UniProt Q92485)
inactive: [1] 0.036 | [2] -0.137 | [4] -0.073 | [5] -0.062 | [6] 0.013 | [7] 0.077 | [8] 0.034 | [9] -0.009 | [10] 0.004

SOX12 (UniProt O15370)
inactive: [1] 0.165 | [3] 0.115 | [7] 0.124 | [8] 0.053 | [9] 0.157 | [10] 0.054

SNRPD2 (UniProt K7EJB5)
inactive: [1] 0.061 | [2] -0.029 | [4] -0.085 | [5] 0.026 | [6] 0.112 | [9] -0.049 | [10] 0.112

SPARC (UniProt P09486)
inactive: [1] 0.061 | [3] 0.04 | [4] 0.016 | [6] -0.024 | [7] -0.132 | [8] -0.083 | [9] -0.045 | [10] 0.018

SPAG9 isoform 4 (UniProt O60271)
inactive: [1] 0.114 | [3] 0.011 | [4] -0.026 | [6] 0.018 | [7] -0.123 | [8] -0.016 | [10] 0.133

SOX6 (UniProt P35712)
inactive: [1] -0.058 | [3] 0.145 | [4] 0.06 | [6] 0.053 | [7] -0.042 | [8] 0.075 | [9] -0.085 | [10] 0.033

SNX4 (UniProt O95219)
inactive: [1] 0.002 | [3] 0.052 | [4] -0.019 | [6] -0.058 | [7] -0.022 | [8] -0.008 | [9] 0.009 | [10] 0.014

SMYD3 (UniProt Q9H7B4)
inactive: [1] 0.036 | [2] 0.013 | [3] 0.017 | [4] -0.137 | [5] -0.051 | [6] -0.02 | [9] 0.045 | [10] -0.005

Pulled one by one from the entries so far (two):
SMYD3 (UniProt Q9H7B4)
inactive: [1] 0.036 | [2] 0.013 | [3] 0.017 | [4] -0.137 | [5] -0.051 | [6] -0.02 | [9] 0.045 | [10] -0.005

SOX6 (UniProt P35712)
inactive: [1] -0.058 | [3] 0.145 | [4] 0.06 | [6] 0.053 | [7] -0.042 | [8] 0.075 | [9] -0.085 | [10] 0.033
